Results deposited as PubChem BioAssay AID743454 (Peter MacCallum Cancer Centre, 2014)
Screen: 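Search for knock-downs that restore vorinostat killing in resistant colon cancer cells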 (primary screen). Cells: human HCT116-VR colon cancer cells, selected for vorinostat resistance. Reagents: siRNA pool against human genes, 40 nM siRNA pool. Duration: vorinostat for 24 h, read-out about 72 h after transfection. Conditions: vorinostat at 2.5 µM final. Detection: 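Two measures, CellTiter-Fluor viability and luminescent caspase 3/7 activity, each as fold change against same-plate mock wells, mean of duplicates, then screen-wide robust z-score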. Scale: viability robust z-score: higher = more viable cells than screen typical; caspase robust z-score: higher = more caspase 3/7 activity than screen typical. Active means: 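Hits are knock-downs in viability class RV1/RV2 or caspase class CA1/CA2, excluding ones that killed cells in the no-drug cell-count arm; hits then retested with single siRNAs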.
Here is one part, drawn at random, of about 18,000 reagents. 450 of them (2.5%) were called active. 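Single biological run; no consistent viability z cut-off exists, so the class columns, not z-scores, define the calls.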 Entries without a mark were called inactive. No sequences are given here.

Gene | viability hit class | caspase hit class | viability robust z-score | caspase robust z-score
NELFA (GeneID 7469) | no change | no change | -0.8 | 0.38
LDLRAD2 (GeneID 401944) | no change | no change | 0.41 | 0.44
AGMO (GeneID 392636) | no change | no change | -0.2 | -0.42
EDDM3B (GeneID 64184) | no change | no change | -1.47 | -1.38
KCNS3 (GeneID 3790) | no change | no change | -0.2 | -0.06
RASSF7 (GeneID 8045) | no change | no change | 0.16 | 1.69
ZFAND1 (GeneID 79752) | no change | no change | 2.21 | -0.82
BAIAP2L1 (GeneID 55971) | no change | no change | -0.16 | -0.43
FOXD4L6 (GeneID 653404) | no change | no change | -0.56 | -0.13
PNMA5 (GeneID 114824) | no change | no change | -0.01 | 0.52
FUT7 (GeneID 2529) | no change | no change | -0.8 | -0.16
SERPINB12 (GeneID 89777) | no change | no change | -3 | 0.36
ITLN2 (GeneID 142683) | no change | no change | 0.44 | -0.56
KDM4C (GeneID 23081) | no change | no change | 1.24 | 1.38
LRRC40 (GeneID 55631) | no change | no change | -1.67 | 0.45
GUCY2C (GeneID 2984) | no change | no change | -0.42 | 1.41
HMCN1 (GeneID 83872) | no change | no change | 0.16 | -0.34
F2RL1 (GeneID 2150) | no change | no change | 0.83 | -0.18
IMP4 (GeneID 92856) | no change | no change | -1.68 | -1.06
ATRAID (GeneID 51374) | no change | no change | -0.76 | 0.1
LRRC8B (GeneID 23507) | no change | no change | -0.77 | 1.12
ANO5 (GeneID 203859) | no change | no change | 0.38 | -0.84
ARL4A (GeneID 10124) | no change | no change | 0.48 | 1.88
ENGASE (GeneID 64772) | no change | no change | -0.3 | 3.02
HDAC6 (GeneID 10013) | no change | no change | -1.25 | 2.77
ADGRA2 (GeneID 25960) | no change | no change | 0.32 | -0.5
SMCP (GeneID 4184) | no change | no change | -1.1 | 0
HSFY2 (GeneID 159119) | no change | no change | -0.32 | 1.63
UBA6 (GeneID 55236) | no change | no change | -0.66 | 0.57
SYT6 (GeneID 148281) | no change | no change | -0.33 | 1.44
EYS (GeneID 346007) | no change | no change | -0.55 | 0.73
ZNF683 (GeneID 257101) | no change | no change | 0.45 | -0.04
MBTD1 (GeneID 54799) | no change | no change | 1.27 | 0.02
BTBD3 (GeneID 22903) | no change | no change | 0.9 | 0.11
HOXC10 (GeneID 3226) | no change | no change | 0.6 | -0.57
RPRD1A (GeneID 55197) | no change | no change | -0.26 | 1.32
INTS4 (GeneID 92105) | no change | no change | 0.04 | 0.89
KCNJ5 (GeneID 3762) | no change | no change | -0.06 | 0.96
DPY30 (GeneID 84661) | no change | no change | 0.4 | -0.44

Copied from the list.
IMP4 (GeneID 92856), caspase robust z-score = -1.06
Under “viability robust z-score”, HMCN1 (GeneID 83872) is entered as 0.16
